PubChem BioAssay AID1259308 – NCATS – 2017
This is an unselected part of about 59,000 reagents. In the full data, about 1,510 (2.6%) were called active. 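Calls use total luciferase alone and ignore viability, so some active siRNAs may act by altering cell number.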

Screen: 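Candidate targets for better recombinant protein yield in mammalian cells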 (primary screen)
System: human HEK293 embryonic kidney cells stably expressing firefly luciferase (HEK-CMV-Luc2-Hygro)
Reagents: single siRNA against human genes, 0.8 pmol siRNA per well
Timing: 72 h
Detection: 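Reporter luminescence and viable-cell signal on separate replicate plates, given as percent of non-targeting control and median/MAD z-scores, plus per-cell luciferase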
Scale: total luciferase, z-score and total luciferase, % of control: higher = more reporter protein produced; luciferase per cell, z-score: higher = more reporter output per viable cell; viable cells, % of control: higher = more viable cells
Hit rule: 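Active when the median/MAD z-score for overall luciferase is greater than 3; a gene was taken forward for validation with new siRNAs if at least two of its three siRNAs passed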
Meaning of the calls: active = raised luciferase; inactive = no rise

| Target gene | PubChem SID | total luciferase, z-score | total luciferase, % of control | luciferase per cell, z-score | viable cells, % of control | Call |
| --- | --- | --- | --- | --- | --- | --- |
| TTC29 (tetratricopeptide repeat domain 29) | SID160751514 | -1.61 | 49.9 | -0.465 | 63 | inactive |
| TTC29 (tetratricopeptide repeat domain 29) | SID160751517 | 0.329 | 88.4 | -0.186 | 104 | inactive |
| TTC29 (tetratricopeptide repeat domain 29) | SID160751518 | -0.554 | 70.9 | -1.59 | 120 | inactive |
| CNP (2',3'-cyclic nucleotide 3' phosphodiesterase) | SID160745483 | -0.158 | 78.7 | 0.956 | 68.4 | inactive |
| CNP (2',3'-cyclic nucleotide 3' phosphodiesterase) | SID160745494 | -0.273 | 76.5 | -0.634 | 101 | inactive |
| CNP (2',3'-cyclic nucleotide 3' phosphodiesterase) | SID160745504 | 0.258 | 87 | 0.78 | 79.2 | inactive |
| SSR3 (signal sequence receptor subunit 3) | SID160717387 | 0.801 | 97.8 | 0.274 | 102 | inactive |
| SSR3 (signal sequence receptor subunit 3) | SID160717388 | 0.0569 | 83 | 0.458 | 82.2 | inactive |
| SSR3 (signal sequence receptor subunit 3) | SID160717389 | 2.36 | 129 | 1.41 | 99.4 | inactive |
| MRPS15 (mitochondrial ribosomal protein S15) | SID160748165 | -2.4 | 34.2 | -1.66 | 59.2 | inactive |
| MRPS15 (mitochondrial ribosomal protein S15) | SID160748166 | 0.791 | 97.6 | 0.464 | 96.5 | inactive |
| MRPS15 (mitochondrial ribosomal protein S15) | SID160748167 | -0.969 | 62.6 | -0.339 | 76.5 | inactive |
| NAV2 (neuron navigator 2) | SID160753435 | 2.21 | 126 | 2 | 82.9 | inactive |
| NAV2 (neuron navigator 2) | SID160753436 | -0.512 | 71.7 | -0.624 | 94.4 | inactive |
| NAV2 (neuron navigator 2) | SID160753437 | -0.578 | 70.4 | 0.557 | 67.9 | inactive |
| PTGDR2 (prostaglandin D2 receptor 2) | SID160730289 | -3.11 | 19.9 | -0.462 | 25.2 | inactive |
| PTGDR2 (prostaglandin D2 receptor 2) | SID160730290 | 0.973 | 101 | 0.742 | 93.1 | inactive |
| PTGDR2 (prostaglandin D2 receptor 2) | SID160730291 | 0.0369 | 82.6 | -0.352 | 101 | inactive |
| USP24 (ubiquitin specific peptidase 24) | SID160736097 | -0.667 | 68.6 | -0.466 | 86.7 | inactive |
| USP24 (ubiquitin specific peptidase 24) | SID160736098 | -1.43 | 53.5 | -1.16 | 81.3 | inactive |
| USP24 (ubiquitin specific peptidase 24) | SID160736099 | -1.15 | 59.1 | -0.473 | 74.8 | inactive |
| SRSF12 (serine and arginine rich splicing factor 12) | SID160757411 | 0.181 | 85.5 | -0.24 | 102 | inactive |
| SRSF12 (serine and arginine rich splicing factor 12) | SID160757412 | -1.2 | 58.1 | -1.41 | 94.1 | inactive |
| SRSF12 (serine and arginine rich splicing factor 12) | SID160757413 | 0.614 | 94.1 | 0.59 | 90 | inactive |
| DEFB112 (defensin beta 112) | SID160732784 | -0.0328 | 81.2 | -0.137 | 94.1 | inactive |
| DEFB112 (defensin beta 112) | SID160761956 | -0.749 | 67 | 0.921 | 58.7 | inactive |
| DEFB112 (defensin beta 112) | SID160761959 | -1.3 | 56 | -0.869 | 78.7 | inactive |
| GAS1 (growth arrest specific 1) | SID160769337 | 0.131 | 84.5 | -0.0821 | 96.5 | inactive |
| GAS1 (growth arrest specific 1) | SID160769347 | 0.36 | 89 | -0.394 | 110 | inactive |
| GAS1 (growth arrest specific 1) | SID160769356 | -0.887 | 64.2 | 0.0192 | 71.4 | inactive |
| NUDT8 (nudix hydrolase 8) | SID160724948 | -0.165 | 78.6 | -0.516 | 101 | inactive |
| NUDT8 (nudix hydrolase 8) | SID160724949 | -1.27 | 56.7 | -1.53 | 94.6 | inactive |
| NUDT8 (nudix hydrolase 8) | SID160762212 | -0.796 | 66.1 | -0.352 | 81 | inactive |
| GPR45 (G protein-coupled receptor 45) | SID160730285 | 1.47 | 111 | 2.26 | 68.4 | inactive |
| GPR45 (G protein-coupled receptor 45) | SID160730286 | 1.04 | 103 | 1.09 | 86.1 | inactive |
| GPR45 (G protein-coupled receptor 45) | SID160730288 | 1.7 | 116 | 1.52 | 86.6 | inactive |
| DAGLA (diacylglycerol lipase alpha) | SID160730298 | 0.0393 | 82.7 | 0.802 | 74.8 | inactive |
| DAGLA (diacylglycerol lipase alpha) | SID160730309 | 0.235 | 86.6 | 0.447 | 86 | inactive |
| DAGLA (diacylglycerol lipase alpha) | SID160730319 | -0.481 | 72.3 | 0.722 | 66.8 | inactive |
| ZNF768 (zinc finger protein 768) | SID160749285 | -0.00418 | 81.8 | 0.081 | 89.5 | inactive |
| ZNF768 (zinc finger protein 768) | SID160749286 | -1.56 | 50.9 | -1.59 | 86.5 | inactive |
| ZNF768 (zinc finger protein 768) | SID160749287 | -0.702 | 67.9 | -0.128 | 78.5 | inactive |
| NHLRC2 (NHL repeat containing 2) | SID160765250 | -1.29 | 56.3 | -1.12 | 84.4 | inactive |
| NHLRC2 (NHL repeat containing 2) | SID160765252 | 2.49 | 131 | 2.62 | 73.6 | inactive |
| NHLRC2 (NHL repeat containing 2) | SID160765253 | 0.0167 | 82.2 | -0.329 | 100 | inactive |
| OTX1 (orthodenticle homeobox 1) | SID160778462 | -0.643 | 69.1 | -0.779 | 94.8 | inactive |
| OTX1 (orthodenticle homeobox 1) | SID160778463 | 1.2 | 106 | 2.52 | 60.9 | inactive |
| OTX1 (orthodenticle homeobox 1) | SID160778465 | -0.804 | 65.9 | -1.02 | 96.3 | inactive |
| EML1 (EMAP like 1) | SID160760009 | -0.247 | 77 | -0.581 | 100 | inactive |
| EML1 (EMAP like 1) | SID160760020 | 3.88 | 159 | 3.13 | 78.1 | active |
| EML1 (EMAP like 1) | SID160760030 | 1.35 | 109 | 1.01 | 93.2 | inactive |
| DRC10 (dynein regulatory complex subunit 10) | SID160755275 | 0.352 | 88.9 | -0.0144 | 99.7 | inactive |
| DRC10 (dynein regulatory complex subunit 10) | SID160755276 | 0.38 | 89.4 | 0.462 | 88.5 | inactive |
| DRC10 (dynein regulatory complex subunit 10) | SID160755277 | -0.444 | 73.1 | 0.0795 | 79.9 | inactive |
| EOLA1 (endothelium and lymphocyte associated ASCH domain 1) | SID160724699 | -0.332 | 75.3 | -0.695 | 101 | inactive |
| EOLA1 (endothelium and lymphocyte associated ASCH domain 1) | SID160754155 | -0.0581 | 80.7 | 0.163 | 86.4 | inactive |
| EOLA1 (endothelium and lymphocyte associated ASCH domain 1) | SID160754156 | 1.82 | 118 | 1.28 | 94.2 | inactive |
| EOLA1 (endothelium and lymphocyte associated ASCH domain 1) | SID160768722 | 0.635 | 94.5 | 0.0986 | 103 | inactive |
| EOLA1 (endothelium and lymphocyte associated ASCH domain 1) | SID160768723 | 0.293 | 87.7 | 0.422 | 87.7 | inactive |
| EOLA1 (endothelium and lymphocyte associated ASCH domain 1) | SID160768724 | 1.34 | 109 | 1.12 | 90.3 | inactive |
| FAM204A (family with sequence similarity 204 member A) | SID160747217 | 0.171 | 85.3 | 0.682 | 79.6 | inactive |
| FAM204A (family with sequence similarity 204 member A) | SID160747218 | 0.31 | 88 | -0.178 | 103 | inactive |
| FAM204A (family with sequence similarity 204 member A) | SID160747219 | -0.567 | 70.6 | -0.55 | 91.2 | inactive |
| ARHGEF11 (Rho guanine nucleotide exchange factor 11) | SID160723191 | -0.322 | 75.5 | -0.817 | 105 | inactive |
| ARHGEF11 (Rho guanine nucleotide exchange factor 11) | SID160723192 | 1.26 | 107 | 1.17 | 87.8 | inactive |
| ARHGEF11 (Rho guanine nucleotide exchange factor 11) | SID160723193 | -1.48 | 52.4 | -1.55 | 88 | inactive |
| ARHGEF35 (Rho guanine nucleotide exchange factor 35) | SID160733445 | -0.877 | 64.4 | -1.29 | 101 | inactive |
| ARHGEF35 (Rho guanine nucleotide exchange factor 35) | SID160768206 | -0.665 | 68.7 | -0.909 | 97.5 | inactive |
| ARHGEF35 (Rho guanine nucleotide exchange factor 35) | SID160768207 | 1.23 | 106 | 0.513 | 104 | inactive |
| ZSCAN1 (zinc finger and SCAN domain containing 1) | SID160763250 | 0.435 | 90.5 | 0.382 | 91.5 | inactive |
| ZSCAN1 (zinc finger and SCAN domain containing 1) | SID160763251 | 0.853 | 98.9 | 0.452 | 98.1 | inactive |
| ZSCAN1 (zinc finger and SCAN domain containing 1) | SID160763252 | 1.36 | 109 | 0.426 | 109 | inactive |
| SLIT1 (slit guidance ligand 1) | SID160717010 | -0.0283 | 81.3 | -0.102 | 93.4 | inactive |
| SLIT1 (slit guidance ligand 1) | SID160717011 | -0.033 | 81.2 | -0.53 | 104 | inactive |
| SLIT1 (slit guidance ligand 1) | SID160717012 | 1.36 | 109 | 1.31 | 86.2 | inactive |

Reagents above marked active:
| Target gene | PubChem SID | total luciferase, z-score | total luciferase, % of control | luciferase per cell, z-score | viable cells, % of control | Call |
| --- | --- | --- | --- | --- | --- | --- |
| EML1 (EMAP like 1) | SID160760020 | 3.88 | 159 | 3.13 | 78.1 | active |
